# Measured values published in doi:10.1101/2021.02.10.430492.
# Biological target: T1, Twist (Drosophila) (UniProt P10627)
# T1 sequence: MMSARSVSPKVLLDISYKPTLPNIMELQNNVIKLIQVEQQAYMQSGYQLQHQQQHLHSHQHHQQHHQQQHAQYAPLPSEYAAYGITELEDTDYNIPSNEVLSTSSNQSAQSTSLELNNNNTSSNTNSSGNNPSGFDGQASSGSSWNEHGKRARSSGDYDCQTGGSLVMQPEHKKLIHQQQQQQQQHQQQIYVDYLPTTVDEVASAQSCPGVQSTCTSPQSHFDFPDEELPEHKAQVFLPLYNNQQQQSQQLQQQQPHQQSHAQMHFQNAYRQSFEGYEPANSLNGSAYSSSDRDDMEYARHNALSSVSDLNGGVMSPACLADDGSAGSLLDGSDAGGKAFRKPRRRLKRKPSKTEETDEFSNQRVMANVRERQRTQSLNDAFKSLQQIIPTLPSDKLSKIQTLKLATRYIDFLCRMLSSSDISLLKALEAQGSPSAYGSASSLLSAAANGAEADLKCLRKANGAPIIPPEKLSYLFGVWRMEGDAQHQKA
# Test: yeast double interaction screen
row,Substance,binding
1,Crc (Drosophila),binds
2,nop5 (Drosophila),binds

# These are yes or no findings as the source states them, for the method shown. A result given as binding can be weak or reduced; the word gives no strength.
